Patent publication US12048686B2, “Compositions and methods for activating NRF2-dependent gene expression” (The University of Chicago, priority 2018, dated 2024)
“Also recorded” adds a separate entry of the source. At least one structure is not confirmed: it was looked up by name or label, or the drawing left a doubt.

Key:
KEAP1 = test: Western blot of KEAP1 / HMW-KEAP1 formation in treated cells (HEK293T FLAG-KEAP1, IMR32); assay type: cell-based, human
Description: FLAG-tagged Protein Expression and Western Blotting. Full-length, human PGK1 (NM_000291, Origene) transiently expressed from a pCMV6 entry vector with a C-terminal Myc-DDK tag; full-length, human KEAP1 (28023, Addgene) was transiently expressed from a pcDNA/FRT/TO plasmid with a C-terminal 3×FLAG tag. All references to FLAG-PGK1 or FLAG-KEAP1 represent the proteins in the aforementioned vectors, respectively. Transient protein expression was performed in confluent 10 cm plates of HEK293T cells by transfection of 1 μg plasmid with Lipofectamine 2000 (Invitrogen) according to manufacturer's protocol. For in situ compound or metabolite treatment experiments, compounds were added approximately 24 hours after transfection, and incubated for the indicated duration. For FLAG-KEAP1 western blotting and immunoprecipitation experiments, cells were harvested by scraping, pelleted by centrifugation, washed twice with PBS and lysed in 8 M urea, 50 mM NH4HCO3, phosphatase inhibitor cocktail (Sigma Aldrich), and EDTA-free complete protease inhibitor (Roche), pH 8.0, at 4° C. Lysate was sonicated (Fisher Scientific FB-505), insoluble debris cleared by centrifugation, and the supernatant was diluted into 4× Laemmli buffer containing 50 mM dithiothreitol (DTT) as a reducing agent. […]

IMR32 cells = test: IMR32 viability with co-treatments (cell titer glo); assay type: cell-based; settings: across cell lines, on average; IMR32 48 hr
Description: FIG. 38. PGK1 toxicity can be rescued with metabolites that are involved with GSH biosynthesis and quenching of reactive oxygen species and methylglyoxal. […] IMR32 cells treated for 48 hr in presence of indicated drugs.
PGK1 toxicity can be rescued with metabolites that are involved with GSH biosynthesis and quenching of reactive oxygen species and methylglyoxal.
IMR32 cells were treated for 48 hrs with CBR-470-1 and/or BBGC at combinations of doses in a synergy matrix (FIG. 41). […] Viability measured using cell titer glo assay (Promega). Viability decreased at higher concentrations of CBR-470-1 and BBGC start at 5 uM. […] Sensitivity of cell lines to direct inhibition of GLO1 (which detoxifies MGO) is generally correlated with sensitivity to PGK1 inhibition with CBR-470-1-consistent with MGO buildup playing a role in toxicity.

Row | Compound | HMW-KEAP1 formation after pre-treatment of cells (KEAP1) | effect of co-treatment on viability effects of PGK1 inhibition (IMR32 cells)
1 | COC(=O)[C@]12CCC(C)(C)C[C@H]1[C@H]1C(=O)C=C3[C@@]4(C)C=C(C#N)C(=O)C(C)(C)[C@@H]4CC[C@@]3(C)[C@]1(C)CC2 [bardoxolone methyl, reference compound] | inhibited HMW-KEAP1 formation | 
2 | CC(=O)C(=O)O [pyruvate] |  | do not strongly affect viability effects of PGK1 inhibition; also recorded: do not strongly effect viability effect of PGK1 inhibition
